This is one part of the list. Shown are side measurements of this screen, not its main read-out; they come without a call. Compounds called inactive in the main read-out are mostly missing here. Potencies come from curve fits of mixed quality, noted in brackets.

The test in a line: qHTS Assay for Lipid Storage Modulators in Drosophila S3 Cells.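 As to cell number change: cells counted by Cell Tracker Red CMTPX staining in the red channel.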 To be noted: BODIPY lipid droplet fluorescence, 18-24 h; for cell number change: measured here: cell count max response, cells fed with added oleic acid. In outline: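 Drosophila S3 cells got compounds at several concentrations plus oleic acid (400 uM solution). Laser-scanning cytometry with 488 nm excitation read lipid droplets at 500-530 nm and cells at 575-640 nm. Percent activity was relative to 20 uM Triacsin C.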
(In general: In qHTS, concentration-response curves come from the screen itself.)

Where [1] appears, read: measured here: lipid fluorescence (Fed channel) AC50, cells fed with added oleic acid.
Setting [2] is: measured here: cell number channel AC50, cells fed with added oleic acid.

The AC50 is the midpoint of the concentration-response curve, whichever way the signal moves. High values mean weaker potency, low ones greater potency. Regarding `COc1ccc(N2C(=O)CSC(c3ccccc3)C2=O)cc1` (centres undefined), the cell number change is -15.1%. In addition, under setting [1], the AC50 was 0.00461 µM [falling, full curve, poor fit].

Take `C=CCn1c(C(O)c2ccccc2)nc2ccccc21` (centres undefined): the cell number change worked out at 4.38%. In addition, under setting [1], the AC50 is 4.11 µM [rising, full curve].

With `CCOc1ccc(NC(=O)CCN2CCN(S(=O)(=O)c3cc(Cl)ccc3OC)CC2)cc1`, under setting [1], the AC50 is 0.58 µM [rising, single point].

On to `O=C(CSc1ncnc2c1oc1ccccc12)Nc1nc2ccccc2s1`, for which the cell number change was -54%.

With `COc1ccc(C(=S)N2CCOCC2)cc1OC(=O)c1ccc([N+](=O)[O-])cc1[N+](=O)[O-]`, the cell number change came out at 12.8%. Besides, the concentration at half-maximal activity (AC50) under setting [1] is 29.1 µM [rising, single point].

Take `Cc1ccc(S(=O)(=O)N2CCCCC2)cc1C(=O)NC1CCCCC1`: the cell number change is 14.3%. The AC50 under setting [1] was 18.4 µM [rising, single point].

For `Nc1nc(NCC2CCCO2)nc(NCC2CCCO2)c1[N+](=O)[O-]` (centres undefined), the cell number change was 3.31%. For the same compound, the concentration at half-maximal activity (AC50) under setting [1] was 29.1 µM [rising, single point].

As for `O=S(=O)(NCc1ccco1)c1cccc(S(=O)(=O)N2CCOCC2)c1`, the cell number change was determined as 9.11%. In addition, the AC50 under setting [1] was 4.11 µM [falling, single point].

With `CN(C(=O)c1ccccc1OCc1ccc(F)cc1)c1c(N)n(Cc2ccccc2)c(=O)[nH]c1=O`, the cell number change is 172%. Further, the concentration at half-maximal activity (AC50) under setting [2] is 18.4 µM [rising, partial curve]. Moreover, the concentration at half-maximal activity (AC50) under setting [1] is 5.17 µM [rising, partial curve].

In the case of `CCOC(=O)c1sc(=NC(=O)C2CC2)n(C)c1C`, the cell number change amounted to 10.3%. Moreover, the AC50 under setting [2] is 2.59 µM [rising, single point].

As for `CCN(CC(=O)Nc1ccccc1C(F)(F)F)C(=O)CN1C(=O)NC2(CCCC2)C1=O`, the cell number change was -13.7%.

Take `O=C(CN1C(=O)c2ccccc2S1(=O)=O)NCc1ccco1`: the cell number change was -2.45%. For the same compound, the concentration at half-maximal activity (AC50) under setting [2] is 6.51 µM [falling, single point].

Regarding `CN(Cc1nccs1)C(=O)C1CCC(=O)N(CCc2cccc(F)c2)C1` (centres undefined), the cell number change is 16.8%. Besides, the concentration at half-maximal activity (AC50) under setting [1] was 20.6 µM [rising, partial curve, poor fit].

Regarding `COc1cccc(CNC(=O)C2CCCN(S(=O)(=O)c3c(C)[nH]c(=O)[nH]c3=O)C2)c1` (centres undefined), the cell number change is -8.2%. In addition, under setting [1], the AC50 is 29.1 µM [falling, single point].

Take `CC(C)(C)c1ccc(/C=C/C(=O)Nc2ccncc2)cc1`: the cell number change is -38.4%. Moreover, the AC50 under setting [2] was 32.6 µM [falling, single point].

As to `Cc1ccc(S(=O)(=O)/N=C2/NC(=O)/C(=C/c3ccc(Br)o3)S2)cc1`, the cell number change was found to be 250%. For the same compound, the AC50 under setting [2] is 20.6 µM [rising, single point]. Further, the AC50 under setting [1] is 16.4 µM [rising, single point].

In the case of `Cc1csc(NC(=O)Cc2nn(C)c(=O)c3ccccc23)n1`, the cell number change is -65.3%. Under setting [1], the AC50 was 1.3 µM [rising, partial curve].

For `CC(=O)c1ccc(NC(=S)NC(=O)Cc2ccc(Cl)cc2)cc1`, the cell number change was 58.5%. Moreover, the half-maximal activity concentration (AC50) under setting [2] is 14.6 µM [rising, partial curve].

As to `Cc1ccc(C(=O)Nc2ncc(Cc3ccc(F)cc3)s2)o1`, the cell number change is -25.9%.

Turning to `CCCC(=O)Nc1ccc2c(c1)nc(CN1CCCCC1)n2C`, the cell number change was found to be 1.32%.

In the case of `Cc1ccn2cc(-c3cccc(NC(=O)c4ccccc4)c3)nc2c1`, the cell number change is 7.21%. Moreover, the concentration at half-maximal activity (AC50) under setting [1] is 0.326 µM [rising, full curve].

Turning to `CC(NC(=O)c1ccc(S(=O)(=O)NCc2ccco2)cc1)c1ccc(F)cc1` (centres undefined), the cell number change was -18.5%. Further, the concentration at half-maximal activity (AC50) under setting [1] was 29.1 µM [falling, single point].

With `CC(NS(=O)(=O)c1ccc(Cl)c(Cl)c1)C(=O)OCC(=O)Nc1ccc2c(c1)OCO2` (centres undefined), the cell number change was -41.2%. For the same compound, the concentration at half-maximal activity (AC50) under setting [2] was 29.1 µM [falling, single point].

For `COc1ccc(C(C)=O)cc1COc1cccnc1[N+](=O)[O-]`, the cell number change is -7.89%. The AC50 under setting [1] is 0.251 µM [falling, full curve, poor fit].

As to `O=C(c1ccccc1)N(C1=NCCCCS1)c1ccccc1`, the cell number change amounted to 8.68%. Under setting [1], the AC50 was 0.13 µM [rising, partial curve, poor fit].

As to `C/C(=N\NC(=O)c1ccccc1F)c1ccc(C#N)cc1`, the cell number change was 96%.

Consider `COc1cccc(CNC(=O)CC2C(=O)NCCN2Cc2ccoc2)c1OC` (centres undefined), for which the cell number change was -9.98%. In addition, the AC50 under setting [1] is 1.3 µM [falling, full curve].

Consider `CCOc1ccccc1/C=N/n1c(C2CCCCC2)n[nH]c1=S`, for which the cell number change was 11.1%.

For `CCOC(=O)c1ccc(N2C(=O)CC(N(Cc3ccc4c(c3)OCO4)C(=O)Nc3ccccc3)C2=O)cc1` (centres undefined), the cell number change was determined as 25.7%. Further, under setting [1], the AC50 is 0.116 µM [rising, full curve, poor fit].

Turning to `COc1cc(-c2nnc(SCc3cc(=O)oc4cc(C)ccc34)o2)cc(OC)c1OC`, the cell number change was -19.7%.

For `CCn1ccc(C(=O)NC2=NCCS2)n1`, the concentration at half-maximal activity (AC50) under setting [1] was 0.00461 µM [falling, full curve, poor fit].

`O=C(NC1CCCc2ccccc21)c1ccccn1` (centres undefined): the AC50 under setting [1] was 10.3 µM [rising, partial curve].

On to `COc1cccc(OC)c1C(=O)N1CCN(S(=O)(=O)c2ccc(C)cc2)CC1`, for which the cell number change turned out to be 0.489%. Moreover, the AC50 under setting [1] is 0.92 µM [falling, full curve].

As to `COc1ccc(-n2cnnc2SCC(=O)Nc2ccccc2F)cc1`, the cell number change was determined as 36.9%. Also, under setting [2], the AC50 was 16.4 µM [rising, single point]. The half-maximal activity concentration (AC50) under setting [1] was 29.1 µM [rising, single point].

Regarding `CN1/C(=C/C(=O)CSc2ccccc2C(=O)O)C(C)(C)c2ccccc21`, the cell number change was found to be 1.08%. Further, the concentration at half-maximal activity (AC50) under setting [1] is 29.1 µM [falling, single point].

In the case of `NCC12CC3CC(CC(O)(C3)C1)C2`, the cell number change is -89.5%. Moreover, under setting [2], the AC50 was 29.1 µM [falling, single point]. Further, the concentration at half-maximal activity (AC50) under setting [1] was 2.06 µM [falling, full curve, poor fit].

In the case of `CCN(CC)CCNC(=O)CS(=O)Cc1nc(-c2ccc(Cl)cc2)oc1C` (centres undefined), the cell number change is 15%. The concentration at half-maximal activity (AC50) under setting [1] is 1.84 µM [rising, single point].

Regarding `CCOc1cc(CNC)ccc1OCC(=O)NC(C)(C)C`, the cell number change was determined as 5.1%. Moreover, the concentration at half-maximal activity (AC50) under setting [1] was 0.58 µM [rising, single point].

On to `Cc1ccc(NC(=O)Cc2nc(CN(C)CC(=O)Nc3ccc(C)cc3)cs2)cc1`, for which the cell number change was found to be 40.3%. Under setting [2], the concentration at half-maximal activity (AC50) is 16.4 µM [rising, single point].

For `COc1ccc(NC2CCCN(C(=O)CN3C(=O)c4ccccc4C3=O)C2)cc1OC` (centres undefined), under setting [1], the concentration at half-maximal activity (AC50) was 23.1 µM [falling, single point].

Take `COC(=O)c1ccc(C(=O)Nc2ccc3nc(-c4ccncc4)[nH]c3c2)cc1`: the cell number change amounted to 19.4%. Besides, under setting [1], the AC50 was 32.6 µM [rising, single point].

As for `O=C(/C=C/c1cccc(Cl)c1)N1CCC(Cc2ccccc2)CC1`, the cell number change was 33.8%. The AC50 under setting [2] is 11.6 µM [rising, single point].

Consider `COc1cc2ccccc2cc1C(=O)OCC(=O)N(CC(C)C)c1c(N)n(Cc2ccccc2)c(=O)[nH]c1=O`, for which the cell number change was 25%. Under setting [2], the half-maximal activity concentration (AC50) is 0.231 µM [rising, full curve, poor fit]. The concentration at half-maximal activity (AC50) under setting [1] is 0.13 µM [rising, full curve, poor fit].

`Cc1cc(Cl)cc(Br)c1OCCNCC(C)O` (centres undefined): the cell number change amounted to 0.546%. For the same compound, the AC50 under setting [1] was 29.1 µM [falling, single point].

Take `O=C1CC(N2CCC(c3nc4ccccc4o3)CC2)C(=O)N1c1ccc(Cl)c(C(F)(F)F)c1` (centres undefined): the cell number change was -37.7%. Also, under setting [2], the AC50 is 18.4 µM [falling, partial curve]. The AC50 under setting [1] is 29.1 µM [falling, single point].

For `O=C(O)CC1COc2ccccc2N1C(=O)c1ccccc1Cl` (centres undefined), the cell number change came to 17.2%. For the same compound, the AC50 under setting [2] is 0.082 µM [falling, full curve, poor fit].

On to `CCCCc1c(C)c2ccc(OCC(C)=O)cc2oc1=O`, for which the cell number change stood at 34.1%. Moreover, under setting [2], the AC50 is 16.4 µM [rising, single point].

With `COc1cc(/C=C2\C(=N)N3N=C(C)SC3=NC2=O)cc(OC)c1OCCOc1ccccc1C`, the cell number change was -16.4%. Also, the AC50 under setting [1] was 23.1 µM [falling, single point].

With `CCOC(=O)c1c(C)n(C)c2ccc(OC)c(NC(=O)CCN3CCSCC3)c12`, the cell number change was 46.8%. In addition, the half-maximal activity concentration (AC50) under setting [2] was 5.17 µM [rising, full curve]. For the same compound, the AC50 under setting [1] was 4.61 µM [rising, single point].

For `COc1cc(NC(=S)NN2CCN(C)CC2)cc(OC)c1OC`, the cell number change was -7.9%. The concentration at half-maximal activity (AC50) under setting [2] is 0.731 µM [falling, single point]. Under setting [1], the AC50 is 16.4 µM [rising, partial curve].

With `C#CCn1c(C)cc(C)c(S(=O)(=O)c2ccccc2)c1=O`, the cell number change was -32%. Moreover, under setting [2], the concentration at half-maximal activity (AC50) is 3.26 µM [falling, full curve, poor fit].

In the case of `Cc1ccc(C(=O)OCC(=O)NCCNC(=O)COC(=O)c2ccc(C)s2)s1`, the cell number change was 0.5%.

In the case of `C/C(=N\NC(=O)c1ccncc1)c1cccc(NC(=O)c2ccc(C(C)(C)C)cc2)c1`, the cell number change is -51.6%. Besides, the AC50 under setting [2] was 36.6 µM [falling, partial curve, poor fit]. Further, under setting [1], the AC50 was 20.6 µM [falling, partial curve].

Consider `COc1cccc(NC(=S)NCc2ccco2)c1`, for which the cell number change was 5.87%. Moreover, the concentration at half-maximal activity (AC50) under setting [1] is 4.11 µM [rising, partial curve].

For the compound `N#Cc1cccc(C(c2nnnn2C2CCCC2)N2CCCCCC2)c1` (centres undefined), the cell number change was -2.07%. Besides, the half-maximal activity concentration (AC50) under setting [1] is 29.1 µM [falling, single point].

As for `CCOC(=O)N(Cc1ccccc1)C(C(=O)O)C(C(=O)O)N(Cc1ccccc1)C(=O)OCC` (centres undefined), the cell number change is -30.8%. Further, under setting [2], the AC50 is 0.184 µM [falling, full curve, poor fit].

Take `Cc1ccc(NC(=O)c2cc(-c3ccc(C)o3)nc3ccccc23)nc1`: the cell number change is -56.2%. Further, the AC50 under setting [2] is 29.1 µM [falling, single point]. Moreover, under setting [1], the AC50 was 29.1 µM [falling, single point].

`Cc1cc(C(=O)Nc2cccc([N+](=O)[O-])c2C)cs1`: the cell number change is 35.3%. Further, the AC50 under setting [1] was 7.08 µM [rising, full curve, poor fit].

Consider `N#Cc1cc2c(=O)n3ccccc3nc2n(CCCn2ccnc2)c1=N`, for which the cell number change was found to be 1.21%. Besides, the AC50 under setting [1] was 0.0058 µM [rising, full curve, poor fit].

Turning to `Cc1c(C(=O)C(=O)N2CCN(C)CC2)c2ccccc2n1C`, the cell number change is -8.77%. In addition, the AC50 under setting [2] is 0.731 µM [falling, single point]. Further, the AC50 under setting [1] is 20.6 µM [falling, single point].

These data come from PubChem BioAssay AID2685 (National Center for Advancing Translational Sciences (NCATS), 2010).
